The values below come from the supplement of paper PMC12823440, “Inhibitors supercharge kinase turnover through native proteolytic circuits” (Nature, 2025).

Protein sequences, listed by entry. Tags and fused reporters are not part of them. Lines headed by an entry give the natural chain unless they say otherwise; changes in a name come on top.
UniProt Q12851: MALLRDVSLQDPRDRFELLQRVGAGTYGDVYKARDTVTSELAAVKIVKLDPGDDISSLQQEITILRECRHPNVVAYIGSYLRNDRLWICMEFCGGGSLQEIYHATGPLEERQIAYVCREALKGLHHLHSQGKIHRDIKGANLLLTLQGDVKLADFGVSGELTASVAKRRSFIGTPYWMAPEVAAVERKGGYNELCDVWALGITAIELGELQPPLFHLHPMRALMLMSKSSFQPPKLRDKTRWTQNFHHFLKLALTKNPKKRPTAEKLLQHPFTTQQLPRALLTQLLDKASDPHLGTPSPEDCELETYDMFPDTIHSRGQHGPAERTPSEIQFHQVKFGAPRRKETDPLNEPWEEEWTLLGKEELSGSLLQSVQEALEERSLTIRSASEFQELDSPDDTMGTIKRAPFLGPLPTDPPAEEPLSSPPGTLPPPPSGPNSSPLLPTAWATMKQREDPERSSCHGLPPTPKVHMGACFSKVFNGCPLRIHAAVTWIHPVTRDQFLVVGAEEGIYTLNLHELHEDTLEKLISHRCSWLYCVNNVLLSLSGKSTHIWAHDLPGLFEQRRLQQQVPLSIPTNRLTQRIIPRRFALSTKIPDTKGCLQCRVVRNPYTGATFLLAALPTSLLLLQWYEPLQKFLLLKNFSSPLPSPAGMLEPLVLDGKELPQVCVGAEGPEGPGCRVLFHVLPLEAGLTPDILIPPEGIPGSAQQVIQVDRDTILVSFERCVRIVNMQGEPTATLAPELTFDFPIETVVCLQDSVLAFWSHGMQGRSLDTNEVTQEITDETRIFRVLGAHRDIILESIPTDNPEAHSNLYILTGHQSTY

Where a name gives a salt, the structure may show the parent alone. Some of the results follow. Hit calls seldom repeat between salt and free forms of one compound.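 In K562 cells expressing nanoluciferase-fused kinases, luminescence was recorded at 4 h intervals between 2 and 18 h, normalized as percent of control with DMSO at 100% and a positive control at 0%. A significant (2 sigma) signal drop marks a time point as decreased. The authors' rule for a hit is not shown and takes in more than the number of time points.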

In the first experiment the target is MAP2K2 (UniProt P36507). The experiment is described as follows: number of time points (of 5) at which kinase-Nluc abundance scored as decreased, DMSO-normalised (count); higher = more persistent destabilization. Conditions: K562; 2-18 h.
With `O=c1[nH]c(=O)n([C@@H]2O[C@H](CO)[C@@H](O)[C@@H]2O)cc1/C=C/Br` [Sorivudine] (10 µM), the “number of time points” value was 0.

For `COc1cc2nccc(Oc3ccc(NC(=O)NC4CC4)c(Cl)c3)c2cc1C(N)=O` [Lenvatinib (mesylate)] (10 µM), the “number of time points” value came out at 0.

For the compound `CN1C(=O)N[C@H](Cc2c[nH]c3c(Cl)cccc23)C1=O` [Necrostatin 2] (10 µM), the “number of time points” value came out at 0.

For the compound `CCN1CCN(Cc2ccc(Nc3ncc(F)c(-c4cc(F)c5nc(C)n(C(C)C)c5c4)n3)nc2)CC1` [Abemaciclib] (2 µM), the “number of time points” value was determined as 0.

As for `Cc1ccc2nc(NCCN)c3ncc(C)n3c2c1` (2.5 µM), the “number of time points” value turned out to be 0.

As for `CNC(=O)c1c(F)cccc1Nc1nc(Nc2cc3c(cc2OC)CCN3C(=O)CN(C)C)nc2[nH]ccc12` (10 µM), the “number of time points” value turned out to be 0.

For the compound `Cn1nccc1Nc1nccc(-c2ccn([C@H](CO)c3ccc(Cl)c(F)c3)c(=O)c2)n1` [Ravoxertinib hydrochloride] (10 µM), the “number of time points” value was found to be 0.

As for `CN(C)CCSSCCNC(=O)C1CCN(C(=O)CSc2ccc(Cl)cc2)CC1` (10 µM), the “number of time points” value is 0.

Consider `CNC(=O)c1cc(COc2nnc(Nc3ccc(Cl)cc3)c3ccoc23)ccn1` [Telatinib] (10 µM), for which the “number of time points” value worked out at 0.

Regarding `NCCNS(=O)(=O)c1cccc2c(Cl)cccc12` [A-3 (hydrochloride)] (10 µM), the “number of time points” value amounted to 0.

Regarding `O=C(Nc1ccc(CN2CCOCC2)cc1)c1ccc(-c2cccc(Cl)c2)o1` (10 µM), the “number of time points” value was 0.

For the compound `CCN1CCN(Cc2ccc(-c3cc4c(N[C@H](C)c5ccccc5)ncnc4[nH]3)cc2)CC1` (2.5 µM), the “number of time points” value was determined as 0.

Take `COc1cccc(OC)c1C(=O)OCc1cc(O)ccc1O[C@@H]1O[C@H](CO)[C@@H](O)[C@H](O)[C@H]1O` [Curculigoside] (10 µM): the “number of time points” value was 0.

`Nc1ncnc2c1c(-c1ccc(Oc3ccccc3)cc1)nn2C1CCCC1` (2.5 µM): the “number of time points” value came to 0.

Take `CC#CC(=O)N1CC[C@@H](n2c(=O)n(-c3ccc(Oc4ccccc4)cc3)c3c(N)ncnc32)C1` [Tirabrutinib] (10 µM): the “number of time points” value stood at 0.

The next experiment concerns the target MAP4K2 (UniProt Q12851). Described as above. Conditions: K562; 2-18 h.
Consider `CCc1c(C(=O)NNC(=O)C(O)c2cc(F)cc(F)c2)ccc(O)c1C` (centres undefined) (10 µM), for which the “number of time points” value was found to be 0.

For the compound `COc1cc2ncnc(Nc3ccc(Cl)cc3F)c2cc1OC` (10 µM), the “number of time points” value is 0.

As for `COc1cc(/C=C/C(=O)NCC(O)c2ccc(O)cc2)ccc1O` (centres undefined) [N-Feruloyloctopamine] (2.5 µM), the “number of time points” value amounted to 0.

`NC(=O)c1nc(Nc2ccccc2)sc1NC(=O)C1CCCCC1` (10 µM): the “number of time points” value was determined as 0.

As to `O=c1cc(CN2CCOCC2)occ1OCCCCCSc1ccnc2cc(C(F)(F)F)ccc12` (10 µM), the “number of time points” value was found to be 0.

For the compound `O=C(O)CCC(=O)Nc1ccc(Br)cn1` [Bikinin] (10 µM), the “number of time points” value came out at 0.

Turning to `CC[C@@H](Oc1nc(Oc2cc(C)cc(-c3cccc(CN)c3)c2)c(F)cc1F)C(=O)O` (10 µM), the “number of time points” value was 0.

Consider `C[C@]1(O)CCN(c2nc(N3C[C@H](O)[C@@H](O)C3)cc(C(F)(F)F)c2C#N)C1` (10 µM), for which the “number of time points” value was 0.

As for `COc1ccccc1-c1cc(Nc2cccc(CS(N)(=O)=O)c2)ncn1` (10 µM), the “number of time points” value amounted to 0.

`CC(=O)c1c(C)cc2cccc(O)c2c1O` [Nepodin] (10 µM): the “number of time points” value worked out at 0.

Consider `NC(=O)c1ccc2[nH]ccc2c1` (10 µM), for which the “number of time points” value turned out to be 0.

With `COc1cc2c(cc1OC)CN(S(=O)(=O)c1ccc(OC)c(N3CCN(C(=O)c4ccc(F)cc4C(F)(F)F)CC3)c1)CC2` (10 µM), the “number of time points” value was 0.

Take `OCCn1cc(-c2ccc3c(c2)CC/C3=N\O)c(-c2ccncc2)n1` (10 µM): the “number of time points” value was found to be 0.

As for `C[C@@H]1CC[C@@H](Nc2nc(NC(C)(C)C)ncc2C(N)=O)C[C@H]1O` (10 µM), the “number of time points” value came out at 0.

In the case of `CCc1cc2c(cc1N1CCC(N3CCOCC3)CC1)C(C)(C)c1[nH]c3cc(C#N)ccc3c1C2=O` [Alectinib] (10 µM), the “number of time points” value is 0.

On to `COCCNc1nc2ccc(C#CC3(O)CCCCC3)cc2n1-c1ccnc(N)n1` (10 µM), for which the “number of time points” value is 0.

As to `Cc1[nH]c(/C=C2\C(=O)Nc3ccccc32)c(C)c1CCC(=O)O` [Orantinib] (10 µM), the “number of time points” value is 0.

On to `Nc1cc(C(F)(F)F)c(-c2cc(N3CCOCC3)nc(N3CCOCC3)n2)cn1` [Buparlisib (Hydrochloride)] (2.5 µM), for which the “number of time points” value was 0.

Turning to `CCN1CCN(Cc2ccc(Nc3ncc(F)c(-c4cc(F)c5nc(C)n(C(C)C)c5c4)n3)nc2)CC1` [Abemaciclib (methanesulfonate)] (10 µM), the “number of time points” value came to 0.
